Measurements reported in the supplement of paper PMC12823440, “Inhibitors supercharge kinase turnover through native proteolytic circuits” (Nature, 2025).
The list shows a part of the results. The calls rarely recur for the same compound in another form.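 Kinases were expressed as nanoluciferase fusions in K562 cells and luminescence was read every 4 h between 2 and 18 h as percent of control, DMSO set to 100% and a positive control to 0%. A time point counts as decreased when the signal drops significantly (2 sigma). The hit call is the authors' own, does not follow from the count of time points alone, and its rule is not shown.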

By UniProt entry, the sequences of proteins in these tests, tags left out. Where a name states a change or a piece, a line headed by the entry shows the natural chain unless it says otherwise.
UniProt P42356, whole entry, looked up: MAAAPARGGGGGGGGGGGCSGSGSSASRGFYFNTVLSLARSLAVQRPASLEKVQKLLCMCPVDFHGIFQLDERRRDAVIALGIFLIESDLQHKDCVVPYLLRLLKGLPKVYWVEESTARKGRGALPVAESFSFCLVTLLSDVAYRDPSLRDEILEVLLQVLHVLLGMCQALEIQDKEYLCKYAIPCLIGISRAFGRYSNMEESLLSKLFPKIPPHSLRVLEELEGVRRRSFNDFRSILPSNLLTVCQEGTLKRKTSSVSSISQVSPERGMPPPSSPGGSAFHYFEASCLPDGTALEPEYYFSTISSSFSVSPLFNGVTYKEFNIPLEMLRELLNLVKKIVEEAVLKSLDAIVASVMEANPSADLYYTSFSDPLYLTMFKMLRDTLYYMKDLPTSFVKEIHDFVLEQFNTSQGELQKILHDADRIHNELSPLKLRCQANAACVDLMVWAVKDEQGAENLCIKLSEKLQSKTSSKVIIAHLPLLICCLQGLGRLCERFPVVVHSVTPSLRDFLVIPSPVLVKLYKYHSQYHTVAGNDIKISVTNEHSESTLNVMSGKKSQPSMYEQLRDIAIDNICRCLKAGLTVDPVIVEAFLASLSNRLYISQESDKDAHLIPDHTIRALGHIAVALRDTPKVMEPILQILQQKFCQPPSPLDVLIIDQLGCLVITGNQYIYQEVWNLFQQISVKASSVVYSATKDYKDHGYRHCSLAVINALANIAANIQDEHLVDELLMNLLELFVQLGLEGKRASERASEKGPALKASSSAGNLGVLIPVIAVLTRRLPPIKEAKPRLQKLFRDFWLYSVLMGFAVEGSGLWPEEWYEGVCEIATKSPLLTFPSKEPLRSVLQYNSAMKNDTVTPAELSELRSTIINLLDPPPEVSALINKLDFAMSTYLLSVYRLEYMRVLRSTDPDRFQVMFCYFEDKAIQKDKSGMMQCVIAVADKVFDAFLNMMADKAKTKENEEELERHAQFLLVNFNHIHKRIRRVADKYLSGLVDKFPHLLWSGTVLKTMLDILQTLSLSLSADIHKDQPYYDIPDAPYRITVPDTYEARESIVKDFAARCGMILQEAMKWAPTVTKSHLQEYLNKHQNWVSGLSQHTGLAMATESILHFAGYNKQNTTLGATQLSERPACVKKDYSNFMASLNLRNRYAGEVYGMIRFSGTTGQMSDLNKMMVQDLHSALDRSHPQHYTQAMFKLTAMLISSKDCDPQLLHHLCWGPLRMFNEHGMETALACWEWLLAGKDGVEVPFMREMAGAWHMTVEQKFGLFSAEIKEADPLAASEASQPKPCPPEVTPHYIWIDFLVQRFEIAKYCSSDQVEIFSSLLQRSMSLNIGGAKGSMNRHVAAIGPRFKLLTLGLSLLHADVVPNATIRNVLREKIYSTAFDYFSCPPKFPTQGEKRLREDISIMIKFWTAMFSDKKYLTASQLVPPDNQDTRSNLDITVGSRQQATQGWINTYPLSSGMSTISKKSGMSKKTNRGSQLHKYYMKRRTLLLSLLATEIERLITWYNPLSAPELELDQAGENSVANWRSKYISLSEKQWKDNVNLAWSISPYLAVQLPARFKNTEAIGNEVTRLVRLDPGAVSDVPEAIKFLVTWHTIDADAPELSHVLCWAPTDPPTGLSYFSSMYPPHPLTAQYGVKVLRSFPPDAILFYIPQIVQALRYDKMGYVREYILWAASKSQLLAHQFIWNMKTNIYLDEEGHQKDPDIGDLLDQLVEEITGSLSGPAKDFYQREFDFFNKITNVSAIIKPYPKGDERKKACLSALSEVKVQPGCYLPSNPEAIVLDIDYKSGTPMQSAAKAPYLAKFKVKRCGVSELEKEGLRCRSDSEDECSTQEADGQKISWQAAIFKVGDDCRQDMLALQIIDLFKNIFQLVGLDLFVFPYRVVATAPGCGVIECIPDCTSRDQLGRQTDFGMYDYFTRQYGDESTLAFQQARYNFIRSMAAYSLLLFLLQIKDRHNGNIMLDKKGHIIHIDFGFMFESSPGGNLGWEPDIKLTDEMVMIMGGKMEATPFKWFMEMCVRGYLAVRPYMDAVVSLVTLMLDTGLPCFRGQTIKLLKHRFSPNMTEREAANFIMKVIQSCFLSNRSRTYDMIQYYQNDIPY
UniProt Q9UBF8: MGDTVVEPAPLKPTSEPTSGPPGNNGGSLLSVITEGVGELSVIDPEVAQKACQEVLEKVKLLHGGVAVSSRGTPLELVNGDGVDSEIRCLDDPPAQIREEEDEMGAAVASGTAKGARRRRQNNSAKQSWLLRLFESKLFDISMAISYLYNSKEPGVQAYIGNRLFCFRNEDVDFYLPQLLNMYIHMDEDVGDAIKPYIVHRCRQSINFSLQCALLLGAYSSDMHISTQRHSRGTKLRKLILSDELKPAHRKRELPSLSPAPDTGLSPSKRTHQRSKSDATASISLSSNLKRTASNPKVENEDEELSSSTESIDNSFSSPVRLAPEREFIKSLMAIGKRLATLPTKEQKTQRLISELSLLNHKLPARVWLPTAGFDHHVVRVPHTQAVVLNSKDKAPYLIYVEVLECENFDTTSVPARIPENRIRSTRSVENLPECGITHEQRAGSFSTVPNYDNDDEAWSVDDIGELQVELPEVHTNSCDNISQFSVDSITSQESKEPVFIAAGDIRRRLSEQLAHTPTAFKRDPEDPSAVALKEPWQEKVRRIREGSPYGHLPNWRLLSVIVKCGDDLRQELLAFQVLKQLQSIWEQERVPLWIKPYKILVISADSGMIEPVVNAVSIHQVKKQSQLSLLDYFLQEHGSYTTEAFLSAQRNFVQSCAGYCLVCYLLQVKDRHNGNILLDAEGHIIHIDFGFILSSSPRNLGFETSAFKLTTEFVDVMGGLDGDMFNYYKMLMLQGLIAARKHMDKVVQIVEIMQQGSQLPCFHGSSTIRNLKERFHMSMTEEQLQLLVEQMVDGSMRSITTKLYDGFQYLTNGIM
UniProt P53350, whole entry: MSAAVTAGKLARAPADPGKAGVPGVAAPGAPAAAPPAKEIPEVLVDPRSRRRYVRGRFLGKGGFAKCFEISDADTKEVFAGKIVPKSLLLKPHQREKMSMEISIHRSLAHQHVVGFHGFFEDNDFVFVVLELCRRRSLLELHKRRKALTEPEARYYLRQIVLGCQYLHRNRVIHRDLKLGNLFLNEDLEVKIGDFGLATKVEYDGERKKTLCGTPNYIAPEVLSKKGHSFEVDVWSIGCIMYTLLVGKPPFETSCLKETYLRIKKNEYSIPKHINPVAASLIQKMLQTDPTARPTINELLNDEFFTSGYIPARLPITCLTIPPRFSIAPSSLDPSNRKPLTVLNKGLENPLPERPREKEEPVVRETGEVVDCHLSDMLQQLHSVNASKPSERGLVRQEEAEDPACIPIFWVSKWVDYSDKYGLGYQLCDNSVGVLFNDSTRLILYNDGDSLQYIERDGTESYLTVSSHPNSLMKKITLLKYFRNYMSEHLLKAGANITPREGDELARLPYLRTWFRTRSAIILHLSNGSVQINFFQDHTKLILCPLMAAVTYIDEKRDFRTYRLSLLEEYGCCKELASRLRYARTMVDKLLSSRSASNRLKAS
UniProt Q9BRS2: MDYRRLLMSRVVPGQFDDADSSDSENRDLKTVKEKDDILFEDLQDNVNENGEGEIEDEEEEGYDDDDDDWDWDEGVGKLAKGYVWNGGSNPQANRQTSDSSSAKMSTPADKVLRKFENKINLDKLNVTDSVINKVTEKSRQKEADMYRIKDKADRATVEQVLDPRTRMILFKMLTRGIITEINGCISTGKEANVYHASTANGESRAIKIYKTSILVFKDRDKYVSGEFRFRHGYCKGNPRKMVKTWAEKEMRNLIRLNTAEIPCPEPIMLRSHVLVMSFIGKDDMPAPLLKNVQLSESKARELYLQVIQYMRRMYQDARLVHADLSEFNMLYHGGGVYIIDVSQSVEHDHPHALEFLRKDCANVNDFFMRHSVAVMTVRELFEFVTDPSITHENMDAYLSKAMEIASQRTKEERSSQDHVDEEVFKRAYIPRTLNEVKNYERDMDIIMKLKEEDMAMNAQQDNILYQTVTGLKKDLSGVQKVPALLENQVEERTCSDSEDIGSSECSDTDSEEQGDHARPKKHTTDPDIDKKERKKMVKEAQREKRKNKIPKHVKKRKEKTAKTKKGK
UniProt Q01974, whole entry: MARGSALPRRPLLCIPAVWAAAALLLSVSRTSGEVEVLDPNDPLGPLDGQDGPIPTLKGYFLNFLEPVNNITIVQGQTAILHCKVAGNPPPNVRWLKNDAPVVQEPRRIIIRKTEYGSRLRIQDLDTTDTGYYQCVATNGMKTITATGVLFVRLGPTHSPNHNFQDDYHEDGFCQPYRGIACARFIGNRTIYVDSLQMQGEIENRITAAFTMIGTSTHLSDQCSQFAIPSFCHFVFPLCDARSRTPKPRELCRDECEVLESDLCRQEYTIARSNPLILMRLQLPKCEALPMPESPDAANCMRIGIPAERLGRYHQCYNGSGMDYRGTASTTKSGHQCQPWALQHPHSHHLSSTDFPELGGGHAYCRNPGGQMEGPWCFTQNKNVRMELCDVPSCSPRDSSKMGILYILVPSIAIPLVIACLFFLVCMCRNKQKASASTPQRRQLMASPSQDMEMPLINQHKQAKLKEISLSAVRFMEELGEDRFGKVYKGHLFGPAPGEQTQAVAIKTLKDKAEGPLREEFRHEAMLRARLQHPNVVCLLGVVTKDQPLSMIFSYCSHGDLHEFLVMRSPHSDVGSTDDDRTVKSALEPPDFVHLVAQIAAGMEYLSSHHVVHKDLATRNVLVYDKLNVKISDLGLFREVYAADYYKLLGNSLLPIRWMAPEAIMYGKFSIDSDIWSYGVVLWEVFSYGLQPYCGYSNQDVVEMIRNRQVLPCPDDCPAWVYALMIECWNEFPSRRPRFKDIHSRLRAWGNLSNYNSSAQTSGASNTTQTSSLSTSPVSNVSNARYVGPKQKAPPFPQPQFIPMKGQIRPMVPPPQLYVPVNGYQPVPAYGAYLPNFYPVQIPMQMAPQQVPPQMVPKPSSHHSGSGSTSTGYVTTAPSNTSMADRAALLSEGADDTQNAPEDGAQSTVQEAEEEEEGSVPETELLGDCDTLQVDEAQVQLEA
UniProt Q15418, whole entry: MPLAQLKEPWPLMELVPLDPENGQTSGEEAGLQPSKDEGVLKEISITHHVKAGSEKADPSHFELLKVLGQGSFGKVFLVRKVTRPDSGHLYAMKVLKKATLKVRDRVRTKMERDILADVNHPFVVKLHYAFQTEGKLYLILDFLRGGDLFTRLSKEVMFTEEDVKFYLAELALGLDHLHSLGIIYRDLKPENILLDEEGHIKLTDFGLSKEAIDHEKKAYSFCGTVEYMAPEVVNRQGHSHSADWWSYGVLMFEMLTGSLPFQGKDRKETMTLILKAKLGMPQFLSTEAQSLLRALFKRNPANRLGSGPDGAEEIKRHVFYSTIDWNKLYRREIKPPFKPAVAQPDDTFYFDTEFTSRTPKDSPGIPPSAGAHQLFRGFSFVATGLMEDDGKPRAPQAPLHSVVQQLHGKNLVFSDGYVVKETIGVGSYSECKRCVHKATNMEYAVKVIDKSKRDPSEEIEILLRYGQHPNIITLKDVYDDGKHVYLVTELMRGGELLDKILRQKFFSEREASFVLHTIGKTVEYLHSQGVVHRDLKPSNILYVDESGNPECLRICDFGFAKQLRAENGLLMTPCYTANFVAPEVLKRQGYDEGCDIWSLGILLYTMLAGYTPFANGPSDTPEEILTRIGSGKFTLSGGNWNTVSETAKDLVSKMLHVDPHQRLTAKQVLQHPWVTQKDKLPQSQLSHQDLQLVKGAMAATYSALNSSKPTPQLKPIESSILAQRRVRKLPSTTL
UniProt Q9NYA1, whole entry: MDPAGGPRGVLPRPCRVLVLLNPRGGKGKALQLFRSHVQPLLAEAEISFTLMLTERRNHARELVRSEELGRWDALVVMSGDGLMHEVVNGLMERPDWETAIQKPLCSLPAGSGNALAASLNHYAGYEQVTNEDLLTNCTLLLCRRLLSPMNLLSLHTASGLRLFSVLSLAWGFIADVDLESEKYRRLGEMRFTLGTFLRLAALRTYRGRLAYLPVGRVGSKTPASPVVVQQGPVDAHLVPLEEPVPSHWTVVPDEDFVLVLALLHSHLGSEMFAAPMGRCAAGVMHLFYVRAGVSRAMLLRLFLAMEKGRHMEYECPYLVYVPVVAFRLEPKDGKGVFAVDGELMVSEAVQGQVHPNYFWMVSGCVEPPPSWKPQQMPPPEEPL
UniProt Q9Y6E0: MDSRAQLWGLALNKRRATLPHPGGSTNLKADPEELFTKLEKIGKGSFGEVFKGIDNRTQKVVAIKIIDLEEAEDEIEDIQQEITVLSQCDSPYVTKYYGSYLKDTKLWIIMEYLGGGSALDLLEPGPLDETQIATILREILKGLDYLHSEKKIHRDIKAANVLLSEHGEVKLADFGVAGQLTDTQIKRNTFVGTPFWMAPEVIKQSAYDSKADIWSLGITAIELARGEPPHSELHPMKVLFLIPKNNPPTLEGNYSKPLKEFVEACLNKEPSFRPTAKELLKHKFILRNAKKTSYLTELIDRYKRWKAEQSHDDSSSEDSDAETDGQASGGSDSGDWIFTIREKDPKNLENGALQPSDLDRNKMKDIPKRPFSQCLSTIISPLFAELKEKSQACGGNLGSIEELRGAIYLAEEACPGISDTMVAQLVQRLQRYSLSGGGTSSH

Columns and labels:
Assay in all cases: kinase-Nluc reporter destabilization hit call (1 = scored as downregulated) (binary); higher = compound decreases kinase abundance
Conditions in all cases: K562; 2-18 h
[1] = biological target: PDPK1 (UniProt O15530)
[2] = biological target: PIK4CA (UniProt P42356)
[3] = biological target: PIK4CB (UniProt Q9UBF8)
[4] = biological target: PLK1 (UniProt P53350)
[5] = biological target: PRKAA1 (UniProt Q13131)
[6] = biological target: PRKCA (UniProt P17252)
[7] = biological target: PTK2 (UniProt Q05397)
[8] = biological target: PTK2B (UniProt Q14289)
[9] = biological target: RAF1 (UniProt P04049)
[10] = biological target: RAF1_S257L (clone: RAF1_mut) (UniProt P04049)
[11] = biological target: RET (UniProt P07949)
[12] = biological target: RET_M918T (clone: RET_mut) (UniProt P07949)
[13] = biological target: RIOK1 (UniProt Q9BRS2)
[14] = biological target: RIPK1 (UniProt Q13546)
[15] = biological target: RIPK2 (UniProt O43353)
[16] = biological target: ROR2 (UniProt Q01974)
[17] = biological target: RPS6KA1 (UniProt Q15418)
[18] = biological target: SPHK1 (UniProt Q9NYA1)
[19] = biological target: SRC (UniProt P12931)
[20] = biological target: STK24 (UniProt Q9Y6E0)

SMILES | kinase-Nluc reporter destabilization hit call [1] | kinase-Nluc reporter destabilization hit call [2] | kinase-Nluc reporter destabilization hit call [3] | kinase-Nluc reporter destabilization hit call [4] | kinase-Nluc reporter destabilization hit call [5] | kinase-Nluc reporter destabilization hit call [6] | kinase-Nluc reporter destabilization hit call [7] | kinase-Nluc reporter destabilization hit call [8] | kinase-Nluc reporter destabilization hit call [9] | kinase-Nluc reporter destabilization hit call [10] | kinase-Nluc reporter destabilization hit call [11] | kinase-Nluc reporter destabilization hit call [12] | kinase-Nluc reporter destabilization hit call [13] | kinase-Nluc reporter destabilization hit call [14] | kinase-Nluc reporter destabilization hit call [15] | kinase-Nluc reporter destabilization hit call [16] | kinase-Nluc reporter destabilization hit call [17] | kinase-Nluc reporter destabilization hit call [18] | kinase-Nluc reporter destabilization hit call [19] | kinase-Nluc reporter destabilization hit call [20]
CC(C)(/C=C(\C#N)C(=O)N1CCC[C@@H](n2nc(-c3ccc(Oc4ccccc4)cc3F)c3c(N)ncnc32)C1)N1CCN(C2COC2)CC1 (2.5 µM) | inactive: 0 | inactive: 0 | inactive: 0 | inactive: 0 | inactive: 0 | inactive: 0 | inactive: 0 | inactive: 0 | inactive: 0 | inactive: 0 | inactive: 0 | inactive: 0 | inactive: 0 | inactive: 0 | inactive: 0 | inactive: 0 | inactive: 0 | inactive: 0 | inactive: 0 | inactive: 0
Cc1ncc(-c2ccnc(Nc3ccc(S(C)(=O)=O)cc3)n2)n1C(C)C (2.5 µM) | inactive: 0 | inactive: 0 | inactive: 0 | inactive: 0 | inactive: 0 | inactive: 0 | inactive: 0 | inactive: 0 | inactive: 0 | inactive: 0 | inactive: 0 | inactive: 0 | inactive: 0 | inactive: 0 | inactive: 0 | inactive: 0 | inactive: 0 | inactive: 0 | inactive: 0 | inactive: 0
COc1c(Cl)cc2c([nH]c3cnccc32)c1NC(=O)c1cccnc1C (10 µM) | inactive: 0 | inactive: 0 | inactive: 0 | inactive: 0 | inactive: 0 | inactive: 0 | inactive: 0 | inactive: 0 | inactive: 0 | inactive: 0 | inactive: 0 | inactive: 0 | inactive: 0 | inactive: 0 | inactive: 0 | inactive: 0 | inactive: 0 | inactive: 0 | inactive: 0 | inactive: 0
CN1CCC(Nc2ncc3ncnc(Nc4ccc(F)c(Cl)c4)c3n2)CC1 [Falnidamol] (10 µM) | inactive: 0 | inactive: 0 | inactive: 0 | inactive: 0 | inactive: 0 | inactive: 0 | inactive: 0 | inactive: 0 | inactive: 0 | inactive: 0 | inactive: 0 | inactive: 0 | inactive: 0 | inactive: 0 | inactive: 0 | inactive: 0 | inactive: 0 | inactive: 0 | inactive: 0 | inactive: 0
Cc1c(NC(=O)c2cc3c(s2)CCCC3)cccc1-c1cn(C)c(=O)c(Nc2ccc([C@@H]3C(=O)N(C)CCN3C)cc2)n1 (10 µM) | inactive: 0 | inactive: 0 | inactive: 0 | inactive: 0 | inactive: 0 | inactive: 0 | inactive: 0 | inactive: 0 | inactive: 0 | inactive: 0 | inactive: 0 | inactive: 0 | inactive: 0 | inactive: 0 | inactive: 0 | inactive: 0 | inactive: 0 | inactive: 0 | inactive: 0 | inactive: 0
Nc1nc(N)c(N=O)c(OCC2CCCCC2)n1 (10 µM) | inactive: 0 | inactive: 0 | inactive: 0 | inactive: 0 | inactive: 0 | inactive: 0 | inactive: 0 | inactive: 0 | inactive: 0 | inactive: 0 | inactive: 0 | inactive: 0 | inactive: 0 | inactive: 0 | inactive: 0 | inactive: 0 | inactive: 0 | inactive: 0 | inactive: 0 | inactive: 0
CCN1CCN(c2ccc(Nc3cc(N(C)C(=O)Nc4c(Cl)c(OC)cc(OC)c4Cl)ncn3)cc2)CC1 [Infigratinib] (10 µM) | inactive: 0 | inactive: 0 | inactive: 0 | inactive: 0 | inactive: 0 | inactive: 0 | inactive: 0 | inactive: 0 | inactive: 0 | inactive: 0 | inactive: 0 | inactive: 0 | inactive: 0 | inactive: 0 | inactive: 0 | inactive: 0 | inactive: 0 | inactive: 0 | inactive: 0 | inactive: 0
Cc1[nH]c(/C=C2\C(=O)Nc3ccc(S(=O)(=O)Cc4c(Cl)cccc4Cl)cc32)c(C)c1C(=O)N1CCC[C@@H]1CN1CCCC1 (2.5 µM) | inactive: 0 | inactive: 0 | inactive: 0 | inactive: 0 | inactive: 0 | inactive: 0 | inactive: 0 | inactive: 0 | inactive: 0 | inactive: 0 | inactive: 0 | inactive: 0 | inactive: 0 | inactive: 0 | inactive: 0 | inactive: 0 | inactive: 0 | inactive: 0 | inactive: 0 | inactive: 0
COc1ccc(F)c(F)c1C(=O)c1cnc(NC2CCN(S(C)(=O)=O)CC2)nc1N (2.5 µM) | inactive: 0 | inactive: 0 | inactive: 0 | inactive: 0 | inactive: 0 | inactive: 0 | inactive: 0 | inactive: 0 | inactive: 0 | active: 1 | inactive: 0 | inactive: 0 | inactive: 0 | inactive: 0 | inactive: 0 | inactive: 0 | inactive: 0 | inactive: 0 | inactive: 0 | inactive: 0
